Test results taken from patent publication US20060242739A1, “Plant nucleotide-sugar pyrophosphatase/phosphodiesterase (nppase), method of obtaining same and use of same in the production of assay devices and in the production of transgenic plants” (Universidad Publica De Navarra, priority 2002, published 2006).

Substrate: Nc1ncnc2c1ncn2[C@@H]1O[C@H](COP(=O)(O)OS(=O)(=O)O)[C@@H](O)[C@H]1O
Experiment: purified protein, by the assay type
Conditions: other: substrate of NPPase from barley leaves; pH 7.0

B1: NPPase from barley leaves (Hordeum vulgare) (protein)
chain: SDGSVVWAKPYTFRAPPTPGQNSLQRIIVFGDMGKAERDGSNEFANYQPGSLNTTDRLIEDLDNYDIVFHIGDMPYANGYLSQWDQFTAQVAPISAKKPYMVASGNHERDWPNTGGFFDVKDSGGECGVPAETMYYYPAENRANFWYKVDYGMFRFCVGDSEHDWREGTPQYKFIEECLSTVDRKHQPWLIFTAHRVLGYSSNSWYADQGSFEEPEGRESLQKLWQRYRVDIAYFGHVHNYERTCPLYQSQCVNADKTHYSGTMNGTIFVVAGGGGSHLSSYTTAIPKWSIFRDHDYGFTKLTAFNHSSLLFEYMKSSDGKVYDSFTIHRDYRDVLSCVHDSCFPTTLAS
For B1, the Km was 500 µM.
